These are yes or no findings as the source states them, for the method shown. In cells and extracts the contact can be indirect. A yes stands for co-enrichment or nearness to the bait. Other partners may have been found.
Each molecule was assayed against eukaryotic initiation factor 4E (EIF4E) (human (endogenous in HT-1080 and Calu-1)) (UniProt P06730) (assay: affinity purification with mass spectrometry; EIF4E immunoprecipitated with an anti-EIF4E antibody from HT-1080 and Calu-1 cells treated with RSL3 (0.5 μM, 4 h); in-gel trypsin digestion, LC-MS/MS).

Sequences of proteins named here, by UniProt entry; tags and fusion partners are left off.
UniProt P06730: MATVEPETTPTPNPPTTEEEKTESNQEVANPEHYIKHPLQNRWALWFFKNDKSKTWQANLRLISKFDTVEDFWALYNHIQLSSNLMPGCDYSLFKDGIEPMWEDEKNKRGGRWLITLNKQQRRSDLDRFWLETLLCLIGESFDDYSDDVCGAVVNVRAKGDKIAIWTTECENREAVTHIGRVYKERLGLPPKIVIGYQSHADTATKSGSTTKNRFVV
UniProt Q9H7Z7: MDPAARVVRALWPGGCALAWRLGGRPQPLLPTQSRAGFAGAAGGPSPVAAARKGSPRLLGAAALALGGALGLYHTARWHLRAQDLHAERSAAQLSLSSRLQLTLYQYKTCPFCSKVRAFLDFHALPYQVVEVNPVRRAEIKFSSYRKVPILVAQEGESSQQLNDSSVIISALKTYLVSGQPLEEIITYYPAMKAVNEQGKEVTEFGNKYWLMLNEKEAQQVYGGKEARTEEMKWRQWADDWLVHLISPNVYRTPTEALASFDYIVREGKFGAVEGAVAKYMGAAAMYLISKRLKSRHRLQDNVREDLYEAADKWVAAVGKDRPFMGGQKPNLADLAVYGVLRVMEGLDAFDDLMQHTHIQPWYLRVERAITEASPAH
UniProt P78417: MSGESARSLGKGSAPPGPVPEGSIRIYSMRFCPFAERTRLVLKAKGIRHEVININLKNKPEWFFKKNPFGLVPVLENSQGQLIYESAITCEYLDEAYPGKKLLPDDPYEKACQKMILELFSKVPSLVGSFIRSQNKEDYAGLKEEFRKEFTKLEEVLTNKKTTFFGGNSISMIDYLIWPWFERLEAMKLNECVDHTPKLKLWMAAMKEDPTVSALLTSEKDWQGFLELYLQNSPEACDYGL
UniProt O75131: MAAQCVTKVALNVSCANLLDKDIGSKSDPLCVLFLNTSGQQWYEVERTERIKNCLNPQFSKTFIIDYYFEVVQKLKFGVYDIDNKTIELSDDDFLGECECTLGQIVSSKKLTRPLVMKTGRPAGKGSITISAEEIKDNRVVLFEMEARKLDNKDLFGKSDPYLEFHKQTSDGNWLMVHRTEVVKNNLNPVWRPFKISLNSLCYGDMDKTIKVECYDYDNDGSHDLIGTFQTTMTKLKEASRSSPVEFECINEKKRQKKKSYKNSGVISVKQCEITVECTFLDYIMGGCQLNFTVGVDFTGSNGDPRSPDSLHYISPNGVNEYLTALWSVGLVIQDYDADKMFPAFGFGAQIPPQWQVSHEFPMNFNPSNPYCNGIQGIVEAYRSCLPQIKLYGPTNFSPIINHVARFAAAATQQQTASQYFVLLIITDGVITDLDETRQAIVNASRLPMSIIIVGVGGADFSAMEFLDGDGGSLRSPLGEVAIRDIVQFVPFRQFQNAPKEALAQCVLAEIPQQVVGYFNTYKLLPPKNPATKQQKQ

Row | Molecule | binding
1 | prostaglandin E synthase 2 (PTGES2) (from UniProt Q9H7Z7 1-377) (enzyme) | binds
2 | glutathione S-transferase omega 1 (GSTO1) (from UniProt P78417 1-241) (enzyme) | binds
3 | hydroxysteroid 17-beta dehydrogenase 4 (HSD17B4) (enzyme, UniProt P51659 1-736) MGSPLRFDGRVVLVTGAGAGLGRAYALAFAERGALVVVNDLGGDFKGVGKGSLAADKVVEEIRRRGGKAVANYDSVEEGEKVVKTALDAFGRIDVVVNNAGILRDRSFARISDEDWDIIHRVHLRGSFQVTRAAWEHMKKQKYGRIIMTSSASGIYGNFGQANYSAAKLGLLGLANSLAIEGRKSNIHCNTIAPNAGSRMTQTVMPEDLVEALKPEYVAPLVLWLCHESCEENGGLFEVGAGWIGKLRWERTLGAIVRQKNHPMTPEAVKANWKKICDFENASKPQSIQESTGSIIEVLSKIDSEGGVSANHTSRATSTATSGFAGAIGQKLPPFSYAYTELEAIMYALGVGASIKDPKDLKFIYEGSSDFSCLPTFGVIIGQKSMMGGGLAEIPGLSINFAKVLHGEQYLELYKPLPRAGKLKCEAVVADVLDKGSGVVIIMDVYSYSEKELICHNQFSLFLVGSGGFGGKRTSDKVKVAVAIPNRPPDAVLTDTTSLNQAALYRLSGDWNPLHIDPNFASLAGFDKPILHGLCTFGFSARRVLQQFADNDVSRFKAIKARFAKPVYPGQTLQTEMWKEGNRIHFQTKVQETGDIVISNAYVDLAPTSGTSAKTPSEGGKLQSTFVFEEIGRRLKDIGPEVVKKVNAVFEWHITKGGNIGAKWTIDLKSGSGKVYQGPAKGAADTTIILSDEDFMEVVLGKLDPQKAFFSGRLKARGNIMLSQKLQMILKDYAKL | binds
4 | aldehyde dehydrogenase 1 family member B1 (ALDH1B1) (enzyme, UniProt P30837 18-517) RYSSAAALPSPILNPDIPYNQLFINNEWQDAVSKKTFPTVNPTTGEVIGHVAEGDRADVDRAVKAAREAFRLGSPWRRMDASERGRLLNRLADLVERDRVYLASLETLDNGKPFQESYALDLDEVIKVYRYFAGWADKWHGKTIPMDGQHFCFTRHEPVGVCGQIIPWNFPLVMQGWKLAPALATGNTVVMKVAEQTPLSALYLASLIKEAGFPPGVVNIITGYGPTAGAAIAQHVDVDKVAFTGSTEVGHLIQKAAGDSNLKRVTLELGGKSPSIVLADADMEHAVEQCHEALFFNMGQCCCAGSRTFVEESIYNEFLERTVEKAKQRKVGNPFELDTQQGPQVDKEQFERVLGYIQLGQKEGAKLLCGGERFGERGFFIKPTVFGGVQDDMRIAKEEIFGPVQPLFKFKKIEEVVERANNTRYGLAAAVFTRDLDKAMYFTQALQAGTVWVNTYNIVTCHTPFGGFKESGNGRELGEDGLKAYTEVKTVTIKVPQKNS | binds

More lines, now with the values ahead:

Row | binding | Molecule
5 | binds | copine 3 (CPNE3) (from UniProt O75131 1-537)
6 | binds | isoleucyl-tRNA synthetase 1 (IARS) (enzyme, UniProt P41252 1-1262) MLQQVPENINFPAEEEKILEFWTEFNCFQECLKQSKHKPKFTFYDGPPFATGLPHYGHILAGTIKDIVTRYAHQSGFHVDRRFGWDCHGLPVEYEIDKTLGIRGPEDVAKMGITEYNNQCRAIVMRYSAEWKSTVSRLGRWIDFDNDYKTLYPQFMESVWWVFKQLYDKGLVYRGVKVMPFSTACNTPLSNFESHQNYKDVQDPSVFVTFPLEEDETVSLVAWTTTPWTLPSNLAVCVNPEMQYVKIKDVARGRLLILMEARLSALYKLESDYEILERFPGAYLKGKKYRPLFDYFLKCKENGAFTVLVDNYVKEEEGTGVVHQAPYFGAEDYRVCMDFNIIRKDSLPVCPVDASGCFTTEVTDFAGQYVKDADKSIIRTLKEQGRLLVATTFTHSYPFCWRSDTPLIYKAVPSWFVRVENMVDQLLRNNDLCYWVPELVREKRFGNWLKDARDWTISRNRYWGTPIPLWVSDDFEEVVCIGSVAELEELSGAKISDLHRESVDHLTIPSRCGKGSLHRISEVFDCWFESGSMPYAQVHYPFENKREFEDAFPADFIAEGIDQTRGWFYTLLVLATALFGQPPFKNVIVNGLVLASDGQKMSKRKKNYPDPVSIIQKYGADALRLYLINSPVVRAENLRFKEEGVRDVLKDVLLPWYNAYRFLIQNVLRLQKEEEIEFLYNENTVRESPNITDRWILSFMQSLIGFFETEMAAYRLYTVVPRLVKFVDILTNWYVRMNRRRLKGENGMEDCVMALETLFSVLLSLCRLMAPYTPFLTELMYQNLKVLIDPVSVQDKDTLSIHYLMLPRVREELIDKKTESAVSQMQSVIELGRVIRDRKTIPIKYPLKEIVVIHQDPEALKDIKSLEKYIIEELNVRKVTLSTDKNKYGIRLRAEPDHMVLGKRLKGAFKAVMTSIKQLSSEELEQFQKTGTIVVEGHELHDEDIRLMYTFDQATGGTAQFEAHSDAQALVLLDVTPDQSMVDEGMAREVINRIQKLRKKCNLVPTDEITVYYKAKSEGTYLNSVIESHTEFIFTTIKAPLKPYPVSPSDKVLIQEKTQLKGSELEITLTRGSSLPGPACAYVNLNICANGSEQGGVLLLENPKGDNRLDLLKLKSVVTSIFGVKNTELAVFHDETEIQNQTDLLSLSGKTLCVTAGSAPSLINSSSTLLCQYINLQLLNAKPQECLMGTVGTLLLENPLGQNGLTHQGLLYEAAKVFGLRSRKLKLFLNETQTQEITEDIPVKTLNMKTVYVSVLPTTADF

From paper PMC9588786
